According to the supplement of paper PMC10032668:
This is one part of the list. The list holds hits alone, and they repeat only in part.

Sequences of proteins named here, by UniProt entry; tags and fusion partners are left off.
ATP6V0D1, P61421, UniProt P61421, whole entry: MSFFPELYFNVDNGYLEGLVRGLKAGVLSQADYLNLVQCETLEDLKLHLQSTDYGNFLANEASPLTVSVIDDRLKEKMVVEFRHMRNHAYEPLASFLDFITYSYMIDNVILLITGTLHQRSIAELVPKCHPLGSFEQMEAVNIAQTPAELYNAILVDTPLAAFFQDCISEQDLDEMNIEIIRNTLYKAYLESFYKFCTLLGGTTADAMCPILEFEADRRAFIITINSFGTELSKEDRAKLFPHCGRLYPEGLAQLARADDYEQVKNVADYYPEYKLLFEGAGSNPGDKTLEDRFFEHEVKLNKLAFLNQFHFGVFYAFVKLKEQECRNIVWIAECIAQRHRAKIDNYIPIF
EIF3D, O15371, UniProt O15371, whole entry: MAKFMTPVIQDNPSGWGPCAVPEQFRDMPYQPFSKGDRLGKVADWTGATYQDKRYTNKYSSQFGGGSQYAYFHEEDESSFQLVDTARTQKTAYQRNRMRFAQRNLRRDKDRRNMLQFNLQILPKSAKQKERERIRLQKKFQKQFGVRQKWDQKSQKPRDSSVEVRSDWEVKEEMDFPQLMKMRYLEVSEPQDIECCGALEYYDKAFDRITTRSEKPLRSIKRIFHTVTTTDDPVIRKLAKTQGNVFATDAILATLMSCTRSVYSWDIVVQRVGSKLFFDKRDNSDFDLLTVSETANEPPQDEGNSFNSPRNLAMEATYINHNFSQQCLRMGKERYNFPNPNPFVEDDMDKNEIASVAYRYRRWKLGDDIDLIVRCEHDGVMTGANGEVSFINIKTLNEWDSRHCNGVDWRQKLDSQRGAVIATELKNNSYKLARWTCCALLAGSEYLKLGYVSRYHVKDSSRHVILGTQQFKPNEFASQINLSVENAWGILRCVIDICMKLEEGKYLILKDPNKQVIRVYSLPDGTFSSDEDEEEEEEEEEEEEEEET
NDUFB7, P17568, UniProt P17568, whole entry: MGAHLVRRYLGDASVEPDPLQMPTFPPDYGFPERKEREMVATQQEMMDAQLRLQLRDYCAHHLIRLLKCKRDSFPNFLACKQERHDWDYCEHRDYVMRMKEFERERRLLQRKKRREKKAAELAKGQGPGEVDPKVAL
NUP153, P49790, UniProt P49790, whole entry: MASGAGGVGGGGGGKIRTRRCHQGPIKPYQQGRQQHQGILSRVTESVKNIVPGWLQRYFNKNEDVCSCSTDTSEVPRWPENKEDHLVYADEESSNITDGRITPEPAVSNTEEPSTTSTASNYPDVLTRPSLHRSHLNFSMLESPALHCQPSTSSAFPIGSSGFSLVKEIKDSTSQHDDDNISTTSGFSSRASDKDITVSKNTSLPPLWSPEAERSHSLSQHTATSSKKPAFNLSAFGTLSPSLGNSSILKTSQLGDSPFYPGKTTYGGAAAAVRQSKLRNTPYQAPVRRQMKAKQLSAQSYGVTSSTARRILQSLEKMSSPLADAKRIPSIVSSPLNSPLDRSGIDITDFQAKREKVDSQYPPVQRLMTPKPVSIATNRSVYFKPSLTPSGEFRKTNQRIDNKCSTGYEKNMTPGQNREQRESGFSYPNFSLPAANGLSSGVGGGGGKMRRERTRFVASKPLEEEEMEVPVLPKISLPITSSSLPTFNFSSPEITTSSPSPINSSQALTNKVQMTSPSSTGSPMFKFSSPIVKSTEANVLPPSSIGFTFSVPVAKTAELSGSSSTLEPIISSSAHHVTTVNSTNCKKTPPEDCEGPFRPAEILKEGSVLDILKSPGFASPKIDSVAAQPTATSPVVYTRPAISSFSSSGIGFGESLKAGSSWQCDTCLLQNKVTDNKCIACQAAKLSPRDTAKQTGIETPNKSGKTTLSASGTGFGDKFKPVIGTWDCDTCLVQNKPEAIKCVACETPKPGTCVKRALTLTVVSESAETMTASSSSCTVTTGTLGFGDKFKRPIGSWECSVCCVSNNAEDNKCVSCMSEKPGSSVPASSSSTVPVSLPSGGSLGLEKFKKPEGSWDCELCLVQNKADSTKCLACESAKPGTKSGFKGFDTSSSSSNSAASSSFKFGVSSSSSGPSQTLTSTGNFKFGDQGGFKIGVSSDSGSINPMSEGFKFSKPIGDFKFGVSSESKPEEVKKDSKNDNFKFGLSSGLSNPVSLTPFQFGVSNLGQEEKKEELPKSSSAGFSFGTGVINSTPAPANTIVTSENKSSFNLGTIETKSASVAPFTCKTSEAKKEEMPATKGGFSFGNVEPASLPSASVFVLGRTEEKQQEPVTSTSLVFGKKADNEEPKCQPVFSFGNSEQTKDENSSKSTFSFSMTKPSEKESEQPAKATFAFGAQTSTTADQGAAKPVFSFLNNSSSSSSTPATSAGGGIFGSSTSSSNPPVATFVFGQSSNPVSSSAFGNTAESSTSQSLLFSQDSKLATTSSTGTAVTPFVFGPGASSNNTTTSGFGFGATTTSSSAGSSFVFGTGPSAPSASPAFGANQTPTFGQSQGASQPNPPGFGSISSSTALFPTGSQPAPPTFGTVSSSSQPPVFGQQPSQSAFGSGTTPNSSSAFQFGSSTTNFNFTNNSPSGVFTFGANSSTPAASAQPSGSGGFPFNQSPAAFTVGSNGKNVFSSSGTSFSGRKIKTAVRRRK
EIF3I, Q13347, UniProt Q13347, whole entry: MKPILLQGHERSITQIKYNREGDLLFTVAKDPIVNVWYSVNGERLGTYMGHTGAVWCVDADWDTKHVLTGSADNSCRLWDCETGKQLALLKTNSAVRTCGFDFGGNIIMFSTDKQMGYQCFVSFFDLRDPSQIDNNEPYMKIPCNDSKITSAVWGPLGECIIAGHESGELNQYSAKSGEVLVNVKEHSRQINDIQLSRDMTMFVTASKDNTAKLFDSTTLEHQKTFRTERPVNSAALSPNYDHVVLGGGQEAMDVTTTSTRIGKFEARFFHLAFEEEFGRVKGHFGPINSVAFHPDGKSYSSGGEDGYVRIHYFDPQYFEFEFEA
HIST1H1C, P16403, UniProt P16403, whole entry: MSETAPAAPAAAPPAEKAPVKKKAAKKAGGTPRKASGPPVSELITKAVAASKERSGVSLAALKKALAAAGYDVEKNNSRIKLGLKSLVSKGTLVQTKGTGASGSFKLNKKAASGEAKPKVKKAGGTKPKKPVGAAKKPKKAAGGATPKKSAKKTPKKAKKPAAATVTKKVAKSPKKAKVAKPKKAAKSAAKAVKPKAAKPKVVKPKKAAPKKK
HIST1H1D, P16402, UniProt P16402, whole entry: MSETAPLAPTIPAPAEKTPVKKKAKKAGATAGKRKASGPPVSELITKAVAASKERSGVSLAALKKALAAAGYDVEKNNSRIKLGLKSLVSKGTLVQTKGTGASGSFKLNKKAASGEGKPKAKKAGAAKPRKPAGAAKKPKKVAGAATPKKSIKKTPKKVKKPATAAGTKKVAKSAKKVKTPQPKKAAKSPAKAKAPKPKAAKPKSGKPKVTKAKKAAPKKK
MORF4L2, Q15014, UniProt Q15014, whole entry: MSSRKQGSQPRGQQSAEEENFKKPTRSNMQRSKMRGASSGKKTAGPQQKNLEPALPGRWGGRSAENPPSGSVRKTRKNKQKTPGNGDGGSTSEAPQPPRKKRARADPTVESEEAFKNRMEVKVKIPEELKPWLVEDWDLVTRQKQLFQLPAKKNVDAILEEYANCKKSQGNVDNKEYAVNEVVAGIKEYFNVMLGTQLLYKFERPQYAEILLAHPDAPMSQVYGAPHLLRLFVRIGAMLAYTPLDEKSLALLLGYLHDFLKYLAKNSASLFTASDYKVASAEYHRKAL
ATP6V1A, P38606, UniProt P38606, whole entry: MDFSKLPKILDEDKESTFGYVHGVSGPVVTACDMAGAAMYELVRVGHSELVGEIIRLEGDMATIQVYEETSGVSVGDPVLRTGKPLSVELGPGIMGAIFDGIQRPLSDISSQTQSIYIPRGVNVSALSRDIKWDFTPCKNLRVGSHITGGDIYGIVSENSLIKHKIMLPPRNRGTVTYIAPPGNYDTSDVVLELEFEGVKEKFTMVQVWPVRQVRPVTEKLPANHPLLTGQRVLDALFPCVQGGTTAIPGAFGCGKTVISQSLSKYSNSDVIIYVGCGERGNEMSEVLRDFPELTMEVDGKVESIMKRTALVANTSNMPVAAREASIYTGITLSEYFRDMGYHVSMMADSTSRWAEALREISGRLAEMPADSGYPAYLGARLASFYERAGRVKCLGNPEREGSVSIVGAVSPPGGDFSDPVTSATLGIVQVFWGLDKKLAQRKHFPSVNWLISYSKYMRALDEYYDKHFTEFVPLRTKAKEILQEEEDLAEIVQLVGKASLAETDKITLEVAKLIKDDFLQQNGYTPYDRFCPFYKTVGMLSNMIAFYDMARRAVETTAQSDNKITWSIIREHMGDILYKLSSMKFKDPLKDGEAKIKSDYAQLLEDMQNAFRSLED
PCBP2, Q15366, UniProt Q15366, whole entry: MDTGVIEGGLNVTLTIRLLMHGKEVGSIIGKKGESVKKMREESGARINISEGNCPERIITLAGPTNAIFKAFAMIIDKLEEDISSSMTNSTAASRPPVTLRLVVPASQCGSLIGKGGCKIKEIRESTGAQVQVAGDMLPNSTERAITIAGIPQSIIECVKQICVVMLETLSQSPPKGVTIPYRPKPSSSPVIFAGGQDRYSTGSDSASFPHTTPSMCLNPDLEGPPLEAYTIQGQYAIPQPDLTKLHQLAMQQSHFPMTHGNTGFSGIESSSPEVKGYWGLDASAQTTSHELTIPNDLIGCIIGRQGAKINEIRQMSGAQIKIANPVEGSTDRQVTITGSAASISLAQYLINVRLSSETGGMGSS
PSMD14, O00487, UniProt O00487, whole entry: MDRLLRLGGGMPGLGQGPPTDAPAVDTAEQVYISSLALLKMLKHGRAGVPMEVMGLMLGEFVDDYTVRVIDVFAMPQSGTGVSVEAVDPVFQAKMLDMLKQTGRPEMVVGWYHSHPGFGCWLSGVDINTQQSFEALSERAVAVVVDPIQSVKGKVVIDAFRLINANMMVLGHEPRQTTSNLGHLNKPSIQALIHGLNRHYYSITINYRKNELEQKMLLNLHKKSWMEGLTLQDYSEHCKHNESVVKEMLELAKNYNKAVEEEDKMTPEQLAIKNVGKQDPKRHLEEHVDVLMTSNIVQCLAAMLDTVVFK

Assays:
Assay in all cases: PRISMA enrichment of interactor (LFQ) in peptide spot vs all other peptide spots (log2 fold change); higher = stronger / more specific binding of the interactor to the peptide
ATP6V0D1, P61421 = biological target: ATP6V0D1, P61421
Procedure: (§1)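 PRISMA: 15-aa overlapping tiles (offset 8 aa) of 60 microproteins, plus SOS1/GLUT1 control peptides, were spot-synthesized on cellulose membranes in triplicate. Membranes were incubated with benzonase-treated HEK293T lysate, and bound proteins were identified by LC-MS/MS with LFQ. Enrichment is the log2 fold change of each protein in one spot versus all other spots. Only interactors passing the significance cutoff are listed.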

DDX1, Q92499 = biological target: DDX1, Q92499
Procedure: as §1

DDX50, Q9BQ39 = biological target: DDX50, Q9BQ39
Procedure: as §1

DHX37, Q8IY37 = biological target: DHX37, Q8IY37
Procedure: as §1

DNAJC10, Q8IXB1 = biological target: DNAJC10, Q8IXB1
Procedure: as §1

EIF3D, O15371 = biological target: EIF3D, O15371
Procedure: as §1

HDDC2, Q7Z4H3 = biological target: HDDC2, Q7Z4H3
Procedure: as §1

HEATR5B, Q9P2D3 = biological target: HEATR5B, Q9P2D3
Procedure: as §1

HERC5, Q9UII4 = biological target: HERC5, Q9UII4
Procedure: as §1

MCRIP2, Q9BUT9 = biological target: MCRIP2, Q9BUT9
Procedure: as §1

MKI67, P46013 = biological target: MKI67, P46013
Procedure: as §1

MOV10, Q9HCE1 = biological target: MOV10, Q9HCE1
Procedure: as §1

NDUFB7, P17568 = biological target: NDUFB7, P17568
Procedure: as §1

NUP153, P49790 = biological target: NUP153, P49790
Procedure: as §1

RO60, P10155 = biological target: RO60, P10155
Procedure: as §1

SART1, O43290 = biological target: SART1, O43290
Procedure: as §1

SCAMP3, O14828 = biological target: SCAMP3, O14828
Procedure: as §1

SENP3, Q9H4L4 = biological target: SENP3, Q9H4L4
Procedure: as §1

SLC35B2, Q8TB61 = biological target: SLC35B2, Q8TB61
Procedure: as §1

SLC39A7, Q92504 = biological target: SLC39A7, Q92504
Procedure: as §1

SURF4, O15260 = biological target: SURF4, O15260
Procedure: as §1

TAB2, Q9NYJ8 = biological target: TAB2, Q9NYJ8
Procedure: as §1

ZFR, Q96KR1 = biological target: ZFR, Q96KR1
Procedure: as §1

C19orf53, Q9UNZ5 = biological target: C19orf53, Q9UNZ5
Procedure: as §1

CEBPZ, Q03701 = biological target: CEBPZ, Q03701
Procedure: as §1

CYP51A1, Q16850 = biological target: CYP51A1, Q16850
Procedure: as §1

EIF3I, Q13347 = biological target: EIF3I, Q13347
Procedure: as §1

EIF6, P56537 = biological target: EIF6, P56537
Procedure: as §1

HIST1H1C, P16403 = biological target: HIST1H1C, P16403
Procedure: as §1

HIST1H1D, P16402 = biological target: HIST1H1D, P16402
Procedure: as §1

HMGN4, O00479 = biological target: HMGN4, O00479
Procedure: as §1

LARP1, Q6PKG0 = biological target: LARP1, Q6PKG0
Procedure: as §1

MORF4L2, Q15014 = biological target: MORF4L2, Q15014
Procedure: as §1

RRS1, Q15050 = biological target: RRS1, Q15050
Procedure: as §1

SFXN2, Q96NB2 = biological target: SFXN2, Q96NB2
Procedure: as §1

UPF1, Q92900 = biological target: UPF1, Q92900
Procedure: as §1

ZNF280C, Q8ND82 = biological target: ZNF280C, Q8ND82
Procedure: as §1

ATP6V1A, P38606 = biological target: ATP6V1A, P38606
Procedure: as §1

DHX8, Q14562 = biological target: DHX8, Q14562
Procedure: as §1

ERICH1, Q86X53 = biological target: ERICH1, Q86X53
Procedure: as §1

MAEA, Q7L5Y9 = biological target: MAEA, Q7L5Y9
Procedure: as §1

NAP1L1, P55209 = biological target: NAP1L1, P55209
Procedure: as §1

PCBP2, Q15366 = biological target: PCBP2, Q15366
Procedure: as §1

PSMD14, O00487 = biological target: PSMD14, O00487
Procedure: as §1

B1: TUG1 (peptide)
chain: HPSGPARTQLGGQEG
- PRISMA enrichment of interactor (log2) (ATP6V0D1, P61421): 5.33
- PRISMA enrichment of interactor (log2) (DDX1, Q92499): 8.01
- PRISMA enrichment of interactor (log2) (DDX50, Q9BQ39): 4.56
- PRISMA enrichment of interactor (log2) (DHX37, Q8IY37): 4.34
- PRISMA enrichment of interactor (log2) (DNAJC10, Q8IXB1): 8.05
- PRISMA enrichment of interactor (log2) (EIF3D, O15371): 5.55
- PRISMA enrichment of interactor (log2) (HDDC2, Q7Z4H3): 6.48
- PRISMA enrichment of interactor (log2) (HEATR5B, Q9P2D3): 3.86
- PRISMA enrichment of interactor (log2) (HERC5, Q9UII4): 4.57
- PRISMA enrichment of interactor (log2) (MCRIP2, Q9BUT9): 4.03
- PRISMA enrichment of interactor (log2) (MKI67, P46013): 5.78
- PRISMA enrichment of interactor (log2) (MOV10, Q9HCE1): 8.31
- PRISMA enrichment of interactor (log2) (NDUFB7, P17568): 6.35
- PRISMA enrichment of interactor (log2) (NUP153, P49790): 5.84
- PRISMA enrichment of interactor (log2) (RO60, P10155): 4.83
- PRISMA enrichment of interactor (log2) (SART1, O43290): 7.2
- PRISMA enrichment of interactor (log2) (SCAMP3, O14828): 5.08
- PRISMA enrichment of interactor (log2) (SENP3, Q9H4L4): 6.31
- PRISMA enrichment of interactor (log2) (SLC35B2, Q8TB61): 5.1
- PRISMA enrichment of interactor (log2) (SLC39A7, Q92504): 5.5
- PRISMA enrichment of interactor (log2) (SURF4, O15260): 6.05
- PRISMA enrichment of interactor (log2) (TAB2, Q9NYJ8): 5.54
- PRISMA enrichment of interactor (log2) (ZFR, Q96KR1): 5.65

B2: SNHG16 (peptide)
chain: EHGEQSQAFSDDGAV
- PRISMA enrichment of interactor (log2) (ATP6V0D1, P61421): 5.49
- PRISMA enrichment of interactor (log2) (C19orf53, Q9UNZ5): 8.35
- PRISMA enrichment of interactor (log2) (CEBPZ, Q03701): 4.81
- PRISMA enrichment of interactor (log2) (CYP51A1, Q16850): 4.02
- PRISMA enrichment of interactor (log2) (EIF3I, Q13347): 4.86
- PRISMA enrichment of interactor (log2) (EIF6, P56537): 5.32
- PRISMA enrichment of interactor (log2) (HIST1H1C, P16403): 4.55
- PRISMA enrichment of interactor (log2) (HIST1H1D, P16402): 5.74
- PRISMA enrichment of interactor (log2) (HMGN4, O00479): 4.63
- PRISMA enrichment of interactor (log2) (LARP1, Q6PKG0): 5.31
- PRISMA enrichment of interactor (log2) (MORF4L2, Q15014): 5.27
- PRISMA enrichment of interactor (log2) (RRS1, Q15050): 5.46
- PRISMA enrichment of interactor (log2) (SFXN2, Q96NB2): 6.8
- PRISMA enrichment of interactor (log2) (UPF1, Q92900): 4.54
- PRISMA enrichment of interactor (log2) (ZNF280C, Q8ND82): 4.67

B3: EBAG9 (peptide)
chain: KAAFLREICVTLLPS
- PRISMA enrichment of interactor (log2) (ATP6V1A, P38606): 6.16
- PRISMA enrichment of interactor (log2) (DHX8, Q14562): 6.4
- PRISMA enrichment of interactor (log2) (ERICH1, Q86X53): 4.74
- PRISMA enrichment of interactor (log2) (MAEA, Q7L5Y9): 5.43
- PRISMA enrichment of interactor (log2) (NAP1L1, P55209): 7.3
- PRISMA enrichment of interactor (log2) (PCBP2, Q15366): 3.97
- PRISMA enrichment of interactor (log2) (PSMD14, O00487): 4.72
